Values from PubChem BioAssay AID1159584 (Peter MacCallum Cancer Centre, 2016).
This is an unselected part of about 18,000 reagents tested. Not all columns of the deposit are shown. Not stated in the record: the amount of reagent, the time to read-out.

Purpose: 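Genes that CDH1-null MCF10A cells selectively depend on to survive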 (primary screen)
Cell system: human MCF10A breast epithelial cells, parental and CDH1-null
Reagents: siRNA against human genes
Detection: 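ATP luminescence (CellTiter-Glo) viability per line relative to mean mock wells over all plates, and the ratio of CDH1-null to parental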
Scale: CDH1-null / parental viability ratio: higher = CDH1-null cells survive relatively better than parental; CDH1-null viability vs mock: higher = more viable CDH1-null cells
Units: CDH1-null viability vs mock in fraction of mock

RNF34 (ring finger protein 34) — CDH1-null / parental viability ratio: 0.88; CDH1-null viability vs mock: 0.68
C19orf48P (chromosome 19 open reading frame 48, pseudogene) — CDH1-null / parental viability ratio: 1.37; CDH1-null viability vs mock: 0.82
HLA-DMB (major histocompatibility complex, class II, DM beta) — CDH1-null / parental viability ratio: 0.88; CDH1-null viability vs mock: 0.72
C6orf163 (chromosome 6 open reading frame 163) — CDH1-null / parental viability ratio: 1.07; CDH1-null viability vs mock: 0.88
CXCL13 (C-X-C motif chemokine ligand 13) — CDH1-null / parental viability ratio: 1.02; CDH1-null viability vs mock: 0.88
DNASE1L1 (deoxyribonuclease 1 like 1) — CDH1-null / parental viability ratio: 1.09; CDH1-null viability vs mock: 0.83
KAZN (kazrin, periplakin interacting protein) — CDH1-null / parental viability ratio: 0.86; CDH1-null viability vs mock: 0.56
IL11 (interleukin 11) — CDH1-null / parental viability ratio: 1.18; CDH1-null viability vs mock: 0.45
FAP (fibroblast activation protein alpha) — CDH1-null / parental viability ratio: 1.22; CDH1-null viability vs mock: 0.94
HES7 (hes family bHLH transcription factor 7) — CDH1-null / parental viability ratio: 0.8; CDH1-null viability vs mock: 0.7
GPR85 (G protein-coupled receptor 85) — CDH1-null / parental viability ratio: 1.05; CDH1-null viability vs mock: 0.82
SF3B3 (splicing factor 3b subunit 3) — CDH1-null / parental viability ratio: 1.2; CDH1-null viability vs mock: 0.36
CDCA4 (cell division cycle associated 4) — CDH1-null / parental viability ratio: 1.12; CDH1-null viability vs mock: 0.82
MIS12 (MIS12 kinetochore complex component) — CDH1-null / parental viability ratio: 1.11; CDH1-null viability vs mock: 0.84
LRRC26 (leucine rich repeat containing 26) — CDH1-null / parental viability ratio: 1.03; CDH1-null viability vs mock: 0.7
BCL11A (BCL11 transcription factor A) — CDH1-null / parental viability ratio: 0.95; CDH1-null viability vs mock: 0.76
ARHGAP5 (Rho GTPase activating protein 5) — CDH1-null / parental viability ratio: 1.11; CDH1-null viability vs mock: 0.91
BTAF1 (B-TFIID TATA-box binding protein associated factor 1) — CDH1-null / parental viability ratio: 0.98; CDH1-null viability vs mock: 0.64
SESTD1 (SEC14 and spectrin domain containing 1) — CDH1-null / parental viability ratio: 1.04; CDH1-null viability vs mock: 0.96
ZNF500 (zinc finger protein 500) — CDH1-null / parental viability ratio: 1.05; CDH1-null viability vs mock: 0.97
SLX9 (SLX9 ribosome biogenesis factor) — CDH1-null / parental viability ratio: 1.03; CDH1-null viability vs mock: 0.7
POU6F2 (POU class 6 homeobox 2) — CDH1-null / parental viability ratio: 1.09; CDH1-null viability vs mock: 0.86
ME2 (malic enzyme 2) — CDH1-null / parental viability ratio: 0.94; CDH1-null viability vs mock: 0.96
NGF (nerve growth factor) — CDH1-null / parental viability ratio: 1.03; CDH1-null viability vs mock: 0.79

Just “CDH1-null viability vs mock”, for 4 of the entries above:
GPR85 (G protein-coupled receptor 85) = 0.82
SF3B3 (splicing factor 3b subunit 3) = 0.36
CDCA4 (cell division cycle associated 4) = 0.82
MIS12 (MIS12 kinetochore complex component) = 0.84
